In doi:10.1101/2025.05.21.655409:
Results are given in words; binding and its absence hold for the method and conditions named. Some binding calls cover weakened binding; strength is not graded here.

Target: Cullin 5 (CUL5) (UniProt Q93034)
Test: co-purification (Ni-NTA, then SEC); proteins co-expressed in E. coli; clarified lysate on Ni-NTA resin, wash with 400 mM NaCl and 30 mM imidazole, then Superdex 200 16x600 in 20 mM Tris-HCl pH 8.0, 100 mM NaCl, 5% glycerol, 1 mM DTT

With “RING-Box protein RBX2 (from UniProt Q9UBF6 1-113)” the binding was “binds”.
